Values from PubChem BioAssay AID1224828 (NIAID, 2016).

- Test: 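Knock-downs that increase or decrease LPS-induced p65 nuclear translocation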 (primary screen)
- Cell system: mouse RAW264.7 G9 macrophage reporter cells (GFP-p65, Tnf promoter-mCherry)
- Reagent: siRNA pool against mouse genes, 100 nM
- Timing: 2 days siRNA transfection, then 40 min LPS before fixation
- Challenge: LPS (Salmonella minnesota R595) at 10 ng/ml
- Measurement: 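Microscopy ratio of nuclear to perinuclear-ring GFP-p65 signal, scaled to the plate median; gene score is the average of two replicate robust z-scores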
- Direction: p65 translocation robust z-score: higher = more nuclear NF-kappaB p65 after LPS than the plate median; nuclear/cytoplasmic p65 ratio: higher = more nuclear NF-kappaB p65
- Active means: 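Called active when z exceeds 3.3 or falls under -1.56 (median of Tlr4 controls), giving activity score of at least 50; no calls for control wells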
- Meaning of the calls: active = hit (p65 shift raised or lowered); inactive = no clear change
Shown is one part, drawn at random, of about 17,000 reagents. 762 of all reagents (4.5%) count as active. 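Active calls include both raised and lowered p65 entry, mostly lowered; wells with fewer than 50 cells lack a z-score.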 Raw values are not corrected between plates. Unmarked entries are inactive. No sequences are given here.

gene	PubChem SID	p65 translocation robust z-score	nuclear/cytoplasmic p65 ratio, rep 1	nuclear/cytoplasmic p65 ratio, rep 2	low cell count flag
Dpm1	SID315466372	-0.57	1.39	1.31	enough cells to score
E2f3	SID315466414	2.24	1.94	1.53	enough cells to score
Plxdc1	SID315474521		1.2	1.08	fewer than 50 cells per well; well left out of scoring
Mogat1	SID315473521	1.49	2.02	1.82	enough cells to score
Gucy2f	SID315479834	0.25	1.82	1.34	enough cells to score
Oxr1	SID315477196	0.65	1.54	1.32	enough cells to score
Or8c13	SID315480150	0.86	1.6	1.37	enough cells to score
Eif1ax	SID315472308	-0.07	1.56	1.27	enough cells to score
Vmn1r232	SID315477303		1.45	1.13	fewer than 50 cells per well; well left out of scoring
Ranbp6	SID315479509	-0.17	1.33	1.22	enough cells to score
Uts2b	SID315478317		1.25	1.08	fewer than 50 cells per well; well left out of scoring
Thbs4	SID315469708	-0.34	1.46	1.48	enough cells to score
Kmt5c	SID315479009	1.43	1.81	2.06	enough cells to score
Dus1l	SID315473617	0.55	1.58	1.61	enough cells to score
Sucla2	SID315469525	0.37	1.44	1.29	enough cells to score
St3gal5	SID315469248	0.3	1.62	1.57	enough cells to score
Lrrc20	SID315477965		1.45	1.22	fewer than 50 cells per well; well left out of scoring
Nkx3-1	SID315468185	0.71	1.54	1.51	enough cells to score
Uncx	SID315469939	-1.05	1.2	1.11	enough cells to score
Nid1	SID315468174	0.43	1.54	1.44	enough cells to score
Il2rg	SID315467453	0.76	1.59	1.47	enough cells to score
Or2y16	SID315480140	-0.94	1.46	1.31	enough cells to score
Smc1a	SID315470306		0	1.37	fewer than 50 cells per well; well left out of scoring
Morn2	SID315481741	2.17	2.04	2	enough cells to score
Gck	SID315476404	-0.7	1.64	1.24	enough cells to score
Vpreb3	SID315470013	-0.58	1.4	1.45	enough cells to score
Or7e169	SID315480193	0.73	1.56	1.75	enough cells to score
Polh	SID315475751	0.42	1.47	1.54	enough cells to score
Tsks	SID315469855	-0.04	1.69	1.37	enough cells to score
Cyp2j9	SID315474995	0.27	1.61	1.83	enough cells to score
Cst5	SID315471877	-0.47	1.63	1.56	enough cells to score
Peli2	SID315475974		1.46	1.11	fewer than 50 cells per well; well left out of scoring
Oasl1	SID315478913	0.35	1.5	1.45	enough cells to score
Or7g22	SID315480225	2.97	1.84	1.61	enough cells to score
Rpap3	SID315474379		1.28	1.1	fewer than 50 cells per well; well left out of scoring
Plcd4	SID315468578	1.14	1.53	1.34	enough cells to score
Paics	SID315472806	-0.66	1.37	1.31	enough cells to score
Cryz	SID315466154	-1.06	1.36	1.22	enough cells to score
Srbd1	SID315475588	1.33	1.86	1.83	enough cells to score
Anpep	SID315467729	-0.35	1.61	1.53	enough cells to score
Serpinb9b	SID315469408		1.26	1.22	fewer than 50 cells per well; well left out of scoring
Dhx9	SID315466298	2.83	1.86	1.71	enough cells to score
Pigw	SID315474013	0.52	1.38	1.3	enough cells to score
Arhgap45	SID315474117	-0.61	1.52	1.53	enough cells to score
H13	SID315467097	-0.03	1.61	1.57	enough cells to score
Selenos	SID315476848	2.37	2.07	1.82	enough cells to score
Tbc1d7	SID315472801		1.41	1.21	fewer than 50 cells per well; well left out of scoring
Zdhhc19	SID315479809	-0.46	1.42	1.2	enough cells to score
Cadps	SID315470532	-0.12	1.61	1.73	enough cells to score
Svbp	SID315473755	0.48	1.4	1.59	enough cells to score
Csnk2b	SID315466172	-0.29	1.61	1.37	enough cells to score
Tspan15	SID315474047		1.29	1.29	fewer than 50 cells per well; well left out of scoring
Glul	SID315466926		1.54	1.36	fewer than 50 cells per well; well left out of scoring
Or2ak7	SID315478027		1.32	1.12	fewer than 50 cells per well; well left out of scoring
Zfp37	SID315470114	-0.49	1.52	1.36	enough cells to score
2010204K13Rik	SID315473515		1.6	1.46	fewer than 50 cells per well; well left out of scoring
Hspb1	SID315467324	1.53	1.51	1.69	enough cells to score
B3galnt2	SID315476111	0.88	1.59	1.47	enough cells to score
Zfp185	SID315470101	-0.56	1.27	1.25	enough cells to score
Dhfr	SID315466322	-0.27	1.54	1.26	enough cells to score
Cobl	SID315466041	-0.99	1.35	1.73	enough cells to score
Chd8	SID315473219	3.75 (active)	1.68	2.13	enough cells to score
Or5h19	SID315480010	-0.1	1.55	1.45	enough cells to score
4930474M22Rik	SID315475058	-0.76	1.22	1.21	enough cells to score
Ppp1r1a	SID315471868	0.5	1.46	1.57	enough cells to score
Actr6	SID315472781	0.73	1.78	1.73	enough cells to score
Zbtb5	SID315478764		1.32	1.24	fewer than 50 cells per well; well left out of scoring
S1pr1	SID315466432	-1.83 (active)	1.25	1.31	enough cells to score
Pnpla2	SID315472673	1.17	1.42	1.64	enough cells to score
Epdr1	SID315476068	-2.08 (active)	1.16	0.993	enough cells to score
Epdr1	SID315476480	0.44	1.67	1.57	enough cells to score
Kctd6	SID315474230		1.34	1.23	fewer than 50 cells per well; well left out of scoring
Evi5	SID315466581	0.71	1.68	1.33	enough cells to score
Rpgrip1	SID315475528	0.82	1.66	1.61	enough cells to score
E4f1	SID315466416	1.14	1.68	1.46	enough cells to score

Only “low cell count flag” (9 entries from above):
Cadps [SID315470532]: enough cells to score
Svbp [SID315473755]: enough cells to score
Csnk2b [SID315466172]: enough cells to score
Tspan15 [SID315474047]: fewer than 50 cells per well; well left out of scoring
Glul [SID315466926]: fewer than 50 cells per well; well left out of scoring
Or2ak7 [SID315478027]: fewer than 50 cells per well; well left out of scoring
Zfp37 [SID315470114]: enough cells to score
2010204K13Rik [SID315473515]: fewer than 50 cells per well; well left out of scoring
Hspb1 [SID315467324]: enough cells to score
